This assay concerns the target T1, recombinant human TNFRSF25 (human) (UniProt Q93038).
T1 sequence: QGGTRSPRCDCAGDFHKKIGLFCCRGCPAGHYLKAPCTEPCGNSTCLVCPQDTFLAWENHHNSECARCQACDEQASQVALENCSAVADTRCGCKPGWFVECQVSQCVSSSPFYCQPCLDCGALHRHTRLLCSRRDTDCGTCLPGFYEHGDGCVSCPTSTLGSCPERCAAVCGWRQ
Put plainly: binding with or without the parental antibody (FIG. 9).

These are yes or no findings as the source states them, for the method shown. Some results given as binding are weak or reduced against the parent protein; the word gives no strength.

B1: hTL1A-Ig (Fc fusion, human, UniProt O95150 72-251, looked up, not shown: a dimerising Fc or GST)
chain: LKGQEFAPSHQQVYAPLRADGDKPRAHLTVVRQTPTQHFKNQFPALHWEHELGLAFTKNRMNYTNKFLLIPESGDYFIYSQVTFRGMTSECSEIRQAGRPNKPDSITVVITKVTDSYPEPTQLLMGTKSVCEVGSNWFQPIYLGAMFSLQEGDKLMVNVSDISLVDYTKEDKTFFGAFLL
Take B1: the binding entry is recorded as “binds”.
